Laboratory results: PubChem BioAssay AID1259424 (University of Nebraska Medical Center, 2018)
The deposit covers about 14,000 reagents; this is a random part of them. 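Higher correlation or smaller distance means closer resemblance to KSR1 loss; control wells, including KSR1 knockdowns, recur on many plates.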 Not all columns of the deposit are shown. The record does not give: the time to read-out.

- Aim: 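Find knockdowns that reproduce the expression shifts seen after KSR1 loss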 (primary screen)
- Cells: human HCT116 colon cancer cells
- Knock-down reagent: siRNA pool against human genes, 50 nM
- Read-out: 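Six signature mRNAs by branched-DNA multiplex assay, scaled to two housekeeping genes and non-targeting median, log2; matched to mean KSR1 knockdown profile by Pearson correlation and euclidean distance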
- Reading the numbers: mean correlation with KSR1 profile: higher = expression change more like KSR1 knockdown; mean distance from KSR1 profile: higher = expression change less like KSR1 knockdown

With knock-down of WDR3 [SID363997553], the record shows mean correlation with KSR1 profile 0.439; mean distance from KSR1 profile 6.51.
Depletion of PLA2G2D [SID363998286] gave: mean correlation with KSR1 profile 0.552; mean distance from KSR1 profile 1.57.
For NR1I2 [SID363994948] the deposit lists mean correlation with KSR1 profile -0.126; mean distance from KSR1 profile 2.65.
SLC17A9 [SID364002314] scored mean correlation with KSR1 profile -0.7; mean distance from KSR1 profile 5.66.
Knock-down of SOX1 [SID363996842] resulted in: mean correlation with KSR1 profile -0.496; mean distance from KSR1 profile 4.14.

Individual results from above:
PLA2G2D [SID363998286], mean distance from KSR1 profile → 1.57
WDR3 [SID363997553], mean correlation with KSR1 profile: 0.439

More reagents:
KCNMA1 [SID363993446] showed mean correlation with KSR1 profile 0.151; mean distance from KSR1 profile 3.33.
Against MYH9 [SID363993647], the entry reads mean correlation with KSR1 profile 0.802; mean distance from KSR1 profile 1.28.
Depletion of E2F5 [SID363993163] gave: mean correlation with KSR1 profile -0.228; mean distance from KSR1 profile 1.63.
PDGFRL [SID363997032] scored mean correlation with KSR1 profile 0.431; mean distance from KSR1 profile 1.54.
Against CEP63 [SID364003293] the deposit lists mean correlation with KSR1 profile 0.104; mean distance from KSR1 profile 2.09.
SCG5 [SID363994169] scored mean correlation with KSR1 profile 0.378; mean distance from KSR1 profile 2.06.
CHD8 [SID364005415] gave mean correlation with KSR1 profile -0.875; mean distance from KSR1 profile 2.85.
